Measurements reported in the supplement of paper PMC8728848.
This is one part of the list.

Tests used:
Assay in all cases: glycan array binding signal (z-score within array); higher = stronger binding
Conditions in all cases: glycan notation: IUPAC condensed, linker removed
[1] = molecular target: Gal(a1-6)Glc
In short: (§1)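 Glycan array binding is given as a within-array Z-score, which can be read as non-binding when negative. The arrays, 3228 of them, came from the Consortium for Functional Glycomics database and were retained only where the protein sequence was available. Z-scores were averaged across arrays of the same protein sequence at different concentrations or buffers and across linkers.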

[2] = molecular target: Gal(b1-2)Gal
In short: as §1

[3] = molecular target: Gal(b1-3)Gal
In short: as §1

[4] = molecular target: Gal(b1-3)Gal(b1-4)GlcNAc
In short: as §1

[5] = molecular target: Gal(b1-3)GalNAc
In short: as §1

[6] = molecular target: Gal(b1-3)GalNAc(a1-3)[Fuc(a1-2)]Gal(b1-4)Glc
In short: as §1

[7] = molecular target: Gal(b1-3)GalNAc(a1-3)[Fuc(a1-2)]Gal(b1-4)GlcNAc
In short: as §1

[8] = molecular target: Gal(b1-3)GalNAc(b1-3)Gal
In short: as §1

[9] = molecular target: Gal(b1-3)GalNAc(b1-3)Gal(a1-4)Gal(b1-4)Glc
In short: as §1

[10] = molecular target: Gal(b1-3)GalNAc(b1-4)Gal(b1-4)Glc
In short: as §1

[11] = molecular target: Gal(b1-3)GalNAc(b1-4)[Neu5Ac(a2-3)]Gal(b1-4)Glc
In short: as §1

[12] = molecular target: Gal(b1-3)GlcNAc
In short: as §1

[13] = molecular target: Gal(b1-3)GlcNAc(a1-3)Gal(b1-4)GlcNAc
In short: as §1

[14] = molecular target: Gal(b1-3)GlcNAc(a1-6)Gal(b1-4)GlcNAc
In short: as §1

[15] = molecular target: Gal(b1-3)GlcNAc(b1-2)Man
In short: as §1

[16] = molecular target: Gal(b1-3)GlcNAc(b1-2)Man(a1-3)[Gal(b1-3)GlcNAc(b1-2)Man(a1-6)]Man(b1-4)GlcNAc(b1-4)GlcNAc
In short: as §1

[17] = molecular target: Gal(b1-3)GlcNAc(b1-2)Man(a1-3)[Gal(b1-3)GlcNAc(b1-2)Man(a1-6)]Man(b1-4)GlcNAc(b1-4)[Fuc(a1-6)]GlcNAc
In short: as §1

[18] = molecular target: Gal(b1-3)GlcNAc(b1-2)Man(a1-3)[GlcNAc(b1-4)][Gal(b1-3)GlcNAc(b1-2)Man(a1-6)]Man(b1-4)GlcNAc(b1-4)GlcNAc
In short: as §1

[19] = molecular target: Gal(b1-3)GlcNAc(b1-2)[Gal(b1-3)GlcNAc(b1-6)]Man(a1-6)[Gal(b1-3)GlcNAc(b1-2)Man(a1-3)]Man(b1-4)GlcNAc(b1-4)GlcNAc
In short: as §1

[20] = molecular target: Gal(b1-3)GlcNAc(b1-3)Gal(b1-3)GlcNAc
In short: as §1

[21] = molecular target: Gal(b1-3)GlcNAc(b1-3)Gal(b1-4)Glc
In short: as §1

[22] = molecular target: Gal(b1-3)GlcNAc(b1-3)Gal(b1-4)GlcNAc
In short: as §1

[23] = molecular target: Gal(b1-3)GlcNAc(b1-3)Gal(b1-4)GlcNAc(b1-2)Man(a1-3)[Gal(b1-3)GlcNAc(b1-3)Gal(b1-4)GlcNAc(b1-2)Man(a1-6)]Man(b1-4)GlcNAc(b1-4)GlcNAc
In short: as §1

[24] = molecular target: Gal(b1-3)GlcNAc(b1-3)Gal(b1-4)GlcNAc(b1-2)[Gal(b1-3)GlcNAc(b1-3)Gal(b1-4)GlcNAc(b1-6)]Man(a1-6)[Gal(b1-3)GlcNAc(b1-3)Gal(b1-4)GlcNAc(b1-2)Man(a1-3)]Man(b1-4)GlcNAc(b1-4)[Fuc(a1-6)]GlcNAc
In short: as §1

[25] = molecular target: Gal(b1-3)GlcNAc(b1-3)Gal(b1-4)GlcNAc(b1-3)Gal(b1-4)GlcNAc(b1-2)[Gal(b1-3)GlcNAc(b1-3)Gal(b1-4)GlcNAc(b1-3)Gal(b1-4)GlcNAc(b1-6)]Man(a1-6)[Gal(b1-3)GlcNAc(b1-3)Gal(b1-4)GlcNAc(b1-3)Gal(b1-4)GlcNAc(b1-2)Man(a1-3)]Man(b1-4)GlcNAc(b1-4)[Fuc(a1-6)]GlcNAc
In short: as §1

[26] = molecular target: Gal(b1-3)GlcNAc(b1-3)Gal(b1-4)GlcNAc(b1-6)[Gal(b1-3)GlcNAc(b1-3)]Gal(b1-4)Glc
In short: as §1

[27] = molecular target: Gal(b1-3)GlcNAc(b1-3)Gal(b1-4)[Fuc(a1-3)]GlcNAc
In short: as §1

[28] = molecular target: Gal(b1-3)GlcNAc(b1-3)Gal(b1-4)[Fuc(a1-3)]GlcNAc(b1-6)[Gal(b1-3)GlcNAc(b1-3)]Gal(b1-4)Glc
In short: as §1

[29] = molecular target: Gal(b1-3)GlcNAc(b1-3)GalNAc
In short: as §1

[30] = molecular target: Gal(b1-3)GlcNAc(b1-6)Gal(b1-4)GlcNAc
In short: as §1

[31] = molecular target: Gal(b1-3)GlcNAc(b1-6)GalNAc
In short: as §1

[32] = molecular target: Gal(b1-3)GlcNAc(b1-6)[Gal(b1-3)]GalNAc
In short: as §1

[33] = molecular target: Gal(b1-3)GlcNAc6S
In short: as §1

[34] = molecular target: Gal(b1-3)[Fuc(a1-4)]GlcNAc
In short: as §1

[35] = molecular target: Gal(b1-3)[Fuc(a1-4)]GlcNAc(b1-2)Man
In short: as §1

[36] = molecular target: Gal(b1-3)[Fuc(a1-4)]GlcNAc(b1-2)Man(a1-3)[Gal(b1-3)[Fuc(a1-4)]GlcNAc(b1-2)Man(a1-6)]Man(b1-4)GlcNAc(b1-4)[Fuc(a1-6)]GlcNAc
In short: as §1

[37] = molecular target: Gal(b1-3)[Fuc(a1-4)]GlcNAc(b1-3)Gal(b1-3)[Fuc(a1-4)]GlcNAc
In short: as §1

B1: LlpA (Burkholderia cenocepacia) (protein)
chain: MGSSHHHHHHSSGLVPRGSHKILGSNETLSAGNVVYSDNGQYHLAMQTDGNLVVYGPTGAVWQSQTSGSGGNRAVMQGDGNLVIYRADNTAAWSSKTAHPGAFLAVQDDGNVVIYWPRPAWASNTSDPATQQSAESKYLASGSTMSAGQTVTVAQYMLVFQADGNLVLYKNGGNPIWSTGTQGKGATYAVMQSDGNFVIYAGSTALWSTKTNGANGAQLVLQSDGNLVIYAPTAAWSTKFGLVTAPTSTSTSNNGPGSGICVGVCPPHPLNGNPFSPVGVGTTGLGFPTPGYPGAAF
[1]
  glycan array binding signal (z-score): 0.038
[2]
  glycan array binding signal (z-score): -0.134
[3]
  glycan array binding signal (z-score): 1.25
[4]
  glycan array binding signal (z-score): -0.878
[5]
  glycan array binding signal (z-score): -0.365
[6]
  glycan array binding signal (z-score): 1.11
[7]
  glycan array binding signal (z-score): -0.991
[8]
  glycan array binding signal (z-score): 1.1
[9]
  glycan array binding signal (z-score): 0.971
[10]
  glycan array binding signal (z-score): 0.27
[11]
  glycan array binding signal (z-score): 0.475
[12]
  glycan array binding signal (z-score): -0.647
[13]
  glycan array binding signal (z-score): -0.386
[14]
  glycan array binding signal (z-score): 0.116
[15]
  glycan array binding signal (z-score): 0.664
[16]
  glycan array binding signal (z-score): 0.708
[17]
  glycan array binding signal (z-score): -0.618
[18]
  glycan array binding signal (z-score): 0.388
[19]
  glycan array binding signal (z-score): 1.28
[20]
  glycan array binding signal (z-score): -0.418
[21]
  glycan array binding signal (z-score): -0.316
[22]
  glycan array binding signal (z-score): -0.526
[23]
  glycan array binding signal (z-score): 0.669
[24]
  glycan array binding signal (z-score): 1.84
[25]
  glycan array binding signal (z-score): 0.703
[26]
  glycan array binding signal (z-score): 1.7
[27]
  glycan array binding signal (z-score): 0.291
[28]
  glycan array binding signal (z-score): -1.08
[29]
  glycan array binding signal (z-score): -0.215
[30]
  glycan array binding signal (z-score): -0.616
[31]
  glycan array binding signal (z-score): -0.529
[32]
  glycan array binding signal (z-score): -1.18
[33]
  glycan array binding signal (z-score): -0.484
[34]
  glycan array binding signal (z-score): -0.599
[35]
  glycan array binding signal (z-score): 0.67
[36]
  glycan array binding signal (z-score): 1.25
[37]
  glycan array binding signal (z-score): -0.229
